Experimental data reported in PMC11384962.
Results are given in words; binding and its absence hold for the method and conditions named. In cells and extracts the contact can be indirect. Some binding calls cover weakened binding; strength is not graded here.

The chains behind the UniProt entries cited, without tags or fusion partners.
UniProt Q16637: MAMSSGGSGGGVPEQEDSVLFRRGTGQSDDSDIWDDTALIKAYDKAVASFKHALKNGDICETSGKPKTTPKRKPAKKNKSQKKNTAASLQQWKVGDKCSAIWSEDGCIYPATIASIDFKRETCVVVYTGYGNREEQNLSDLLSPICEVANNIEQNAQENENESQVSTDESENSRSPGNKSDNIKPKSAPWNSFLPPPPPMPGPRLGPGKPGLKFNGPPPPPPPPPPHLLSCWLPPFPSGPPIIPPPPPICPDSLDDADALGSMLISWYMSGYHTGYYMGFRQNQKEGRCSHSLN
UniProt O14893: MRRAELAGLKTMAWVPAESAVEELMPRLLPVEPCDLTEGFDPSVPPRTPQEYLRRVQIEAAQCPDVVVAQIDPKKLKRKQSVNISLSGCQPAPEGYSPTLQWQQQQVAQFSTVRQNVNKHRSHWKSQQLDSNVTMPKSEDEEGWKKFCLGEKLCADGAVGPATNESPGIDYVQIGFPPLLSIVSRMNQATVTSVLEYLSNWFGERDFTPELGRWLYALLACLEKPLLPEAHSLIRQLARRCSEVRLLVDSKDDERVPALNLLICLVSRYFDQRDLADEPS

Columns and labels:
[1] = molecular target: SMN:Clover (survival of motor neuron protein with a C-terminal Clover reporter, endogenously tagged) (human (endogenous in BJ hiPSCs)) (UniProt Q16637); assay: co-IP; BJ WT and BJ SMN:Clover #23 hiPSC lysates, 1 mg protein per reaction; GFP-Trap DynaBeads, or anti-SMN antibody (anti-IgG mouse as control) with Protein A/G magnetic beads; overnight at 4°C; lysis buffer 25mM Tris HCl pH 7.4, 62.5mM NaCl, 2% NP-40, 1mM EDTA; western blot
[2] = molecular target: survival of motor neuron (SMN) protein, untagged (human (endogenous in BJ hiPSCs)) (UniProt Q16637); assay: as above

## gemin2 (from UniProt O14893 1-280)
[1]
  binding: binds
[2]
  binding: binds
